Source: patent publication US12612394B2, “Herbicidal malonamides” (BASF SE, priority 2020, dated 2026)
Some entries share one result that the patent states for a list of compounds.

What was measured:
[1] = tested on: APESV; test: greenhouse experiment, pre-emergence treatment; format: in vivo, Apera spica-venti; conditions: pre-emergence method
[2] = tested on: ALOMY; test: greenhouse experiment, post-emergence treatment; format: in vivo, Alopercurus myosuroides; conditions: post-emergence method
[3] = tested on: AMARE; test: greenhouse experiment, post-emergence treatment; format: in vivo, Amaranthus retroflexus; conditions: post-emergence method
From the text: The culture containers used were plastic flowerpots containing loamy sand with approximately 3.0% of humus as the substrate. The seeds of the test plants were sown separately for each species.
For the pre-emergence treatment, the active ingredients, which had been suspended or emulsified in water, were applied directly after sowing by means of finely distributing nozzles. The containers were irrigated gently to promote germination and growth and subsequently covered with transparent plastic hoods until the test plants had rooted. This cover caused uniform germination of the test plants, unless this had been impaired by the active ingredients. For the post-emergence treatment, the test plants were first grown to a height of 3 to 15 cm, depending on the plant habit, and only then treated with the active ingredients which had been suspended or emulsified in water. For this purpose, the test plants were either sown directly and grown in the same containers, or they were first grown separately as seedlings and transplanted into the test containers a few days prior to treatment.
Depending on the species, the test plants were kept at 10-25° C. or 20-35° C., respectively. The test period extended over 2 to 4 weeks. During this time, the test plants were tended, and their response to the individual treatments was evaluated.
Evaluation was carried out using a scale from 0 to 100. 100 means no emergence of the test plants, or complete destruction of at least the aerial moieties, and 0 means no damage, or normal course of growth. A good herbicidal activity is given at values of 70 to 90 and a very good herbicidal activity is given at values of 90 to 100.
The test plants used in the greenhouse experiments were of the following species: […]

[4] = tested on: ABUTH; test: greenhouse experiment, post-emergence treatment; format: in vivo, Abutilon theophrasti; conditions: post-emergence method

## COC(=O)[C@H]1C[C@@H](NC(=O)C(OC)C(=O)Nc2cc(Cl)cc(Cl)c2)CO1 (relative stereo) [I.40, methyl cis-4-[[3-(3,5-dichloroanilino)-2-methoxy-3-oxo-propanoyl]amino]tetrahydrofuran-2-carboxylate]
[1]; application rate 1,000 kg/ha
  herbicidal activity against APESV: very good (a very good herbicidal activity is given at values of 90 to 100)

## CNC(=O)[C@@H]1C[C@H](NC(=O)C(OC)C(=O)Nc2cc(Cl)cc(Cl)c2)CO1 (relative stereo) [I.63]
[1]; application rate 1,000 kg/ha
  herbicidal activity against APESV: good (A good herbicidal activity is given at values of 70 to 90)

## CNC(=O)[C@@H]1C[C@H](NC(=O)C(OC)C(=O)Nc2cc(F)cc(F)c2)CO1 (relative stereo) [I.100]
[1]; application rate 1,000 kg/ha
  herbicidal activity against APESV: very good (a very good herbicidal activity is given at values of 90 to 100)

## COC(C(=O)Nc1cc(Cl)cc(Cl)c1)C(=O)N(C)[C@H]1C=C[C@@H](C(=O)O)C1 (relative stereo) [I.156]
[1]; application rate 0.250 kg/ha
  herbicidal activity against APESV: good (A good herbicidal activity is given at values of 70 to 90)
[2]; application rate 0.250 kg/ha
  herbicidal activity against ALOMY: good (A good herbicidal activity is given at values of 70 to 90)
[3]; application rate 0.250 kg/ha
  herbicidal activity against AMARE: good (A good herbicidal activity is given at values of 70 to 90)

## COC(C(=O)Nc1cc(Cl)cc(Cl)c1)C(=O)NC1CO[C@@H](C(=O)O)C1 (stereo in doubt) [I.60, cis-4-[[3-(3,5-dichloroanilino)-2-methoxy-3-oxo-propanoyl]amino]tetrahydrofuran-2-carboxylate]
[1]; application rate 1,000 kg/ha
  herbicidal activity against APESV: very good (a very good herbicidal activity is given at values of 90 to 100)

## COC(=O)CCNC(=O)C(C)(OC)C(=O)Nc1cc(Cl)cc(Cl)c1 (centres unmarked) [I.5]
[2]; application rate 0.500 kg/ha
  herbicidal activity against ALOMY: good (A good herbicidal activity is given at values of 70 to 90)
[3]; application rate 0.500 kg/ha
  herbicidal activity against AMARE: very good (a very good herbicidal activity is given at values of 90 to 100)

## CCOC(=O)CC(C)NC(=O)C(C)(OC)C(=O)Nc1cc(Cl)cc(Cl)c1 (centres unmarked) [I.6]
[2]; application rate 0.500 kg/ha
  herbicidal activity against ALOMY: good (A good herbicidal activity is given at values of 70 to 90)

## CCOC(=O)CC(C)NC(=O)C(OC)C(=O)Nc1c(F)c(F)cc(F)c1F (centres unmarked) [I.18]
[2]; application rate 0.500 kg/ha
  herbicidal activity against ALOMY: good (A good herbicidal activity is given at values of 70 to 90)

## COC(=O)C1OCCC1CNC(=O)C(OC)C(=O)Nc1cc(F)cc(F)c1 (centres unmarked) [I.23]
[2]; application rate 0.500 kg/ha
  herbicidal activity against ALOMY: good (A good herbicidal activity is given at values of 70 to 90)

## COC(=O)CCCNC(=O)C(OC)C(=O)Nc1cc(Cl)cc(Cl)c1 (centres unmarked) [I.26, methyl 4-[[3-(3,5-dichloroanilino)-2-methoxy-3-oxo-propanoyl]amino]butanoate]
[2]; application rate 0.500 kg/ha
  herbicidal activity against ALOMY: good (A good herbicidal activity is given at values of 70 to 90)
[3]; application rate 0.500 kg/ha
  herbicidal activity against AMARE: good (A good herbicidal activity is given at values of 70 to 90)

## COC(=O)[C@H]1C[C@H](NC(=O)C(OC)C(=O)Nc2cc(Cl)cc(Cl)c2)C1 (some centres unmarked) [I.27]
[2]; application rate 0.500 kg/ha
  herbicidal activity against ALOMY: good (A good herbicidal activity is given at values of 70 to 90)

## COC(C(=O)Nc1cc(C)cc(Br)c1)C(=O)NC(C)CC(=O)O (centres unmarked) [I.35]
[2]; application rate 0.500 kg/ha
  herbicidal activity against ALOMY: very good (a very good herbicidal activity is given at values of 90 to 100)

## COC[C@H](CC(=O)OC)NC(=O)C(OC)C(=O)Nc1cc(Cl)cc(Cl)c1 (some centres unmarked) [I.41]
[2]; application rate 0.500 kg/ha
  herbicidal activity against ALOMY: good (A good herbicidal activity is given at values of 70 to 90)
[3]; application rate 0.500 kg/ha
  herbicidal activity against AMARE: good (A good herbicidal activity is given at values of 70 to 90)

## C=CC(CCC(=O)OC)NC(=O)C(OC)C(=O)Nc1cc(Cl)cc(Cl)c1 (centres unmarked) [I.46]
[2]; application rate 0.500 kg/ha
  herbicidal activity against ALOMY: very good (a very good herbicidal activity is given at values of 90 to 100)

## COC(=O)COCCNC(=O)C(OC)C(=O)Nc1cc(Cl)cc(Cl)c1 (centres unmarked) [I.54]
[2]; application rate 0.500 kg/ha
  herbicidal activity against ALOMY: good (A good herbicidal activity is given at values of 70 to 90)
[3]; application rate 0.500 kg/ha
  herbicidal activity against AMARE: good (A good herbicidal activity is given at values of 70 to 90)

## COC(=O)COCCNC(=O)C(OC)C(=O)Nc1cc(F)cc(F)c1 (centres unmarked) [I.56]
[3]; application rate 0.500 kg/ha
  herbicidal activity against AMARE: good (A good herbicidal activity is given at values of 70 to 90)

## COC(=O)CC(C)NC(=O)C(OC)C(=O)Nc1cc(C)cc(Cl)c1 (centres unmarked) [I.61]
[1]; application rate 0.500 kg/ha
  herbicidal activity against APESV: good (A good herbicidal activity is given at values of 70 to 90)

## COC(=O)CC(C)NC(=O)C(OC)C(=O)Nc1cc(C)cc(F)c1 (centres unmarked) [I.62]
[1]; application rate 0.500 kg/ha
  herbicidal activity against APESV: very good (a very good herbicidal activity is given at values of 90 to 100)

## CCOC(=O)C(C)CNC(=O)C(OC)C(=O)Nc1cc(Cl)cc(Cl)c1 (centres unmarked) [I.68]
[1]; application rate 1,000 kg/ha
  herbicidal activity against APESV: good (A good herbicidal activity is given at values of 70 to 90)

## COC(=O)C(C)(C)CNC(=O)C(OC)C(=O)Nc1cc(Cl)cc(Cl)c1 (centres unmarked) [I.70]
[2]; application rate 0.500 kg/ha
  herbicidal activity against ALOMY: good (A good herbicidal activity is given at values of 70 to 90)

## COC(=O)C(C)NC(=O)C(OC)C(=O)Nc1cc(Cl)cc(Cl)c1 (centres unmarked) [I.77]
[1]; application rate 0.500 kg/ha
  herbicidal activity against APESV: good (A good herbicidal activity is given at values of 70 to 90)

## COC(=O)C(CCSC)NC(=O)C(OC)C(=O)Nc1cc(Cl)cc(Cl)c1 (centres unmarked) [I.80]
[2]; application rate 0.500 kg/ha
  herbicidal activity against ALOMY: good (A good herbicidal activity is given at values of 70 to 90)
[3]; application rate 0.500 kg/ha
  herbicidal activity against AMARE: good (A good herbicidal activity is given at values of 70 to 90)

## CCOC(=O)C(NC(=O)C(OC)C(=O)Nc1cc(Cl)cc(Cl)c1)C1CC1 (centres unmarked) [I.83]
[2]; application rate 0.500 kg/ha
  herbicidal activity against ALOMY: good (A good herbicidal activity is given at values of 70 to 90)

## COC(=O)C(C)(C)NC(=O)C(OC)C(=O)Nc1cc(Cl)cc(Cl)c1 (centres unmarked) [I.84]
[1]; application rate 1,000 kg/ha
  herbicidal activity against APESV: very good (a very good herbicidal activity is given at values of 90 to 100)

## CCOC(=O)CC(NC(=O)C(OC)C(=O)Nc1cc(Cl)cc(Cl)c1)C(F)(F)F (centres unmarked) [I.95]
[1]; application rate 1,000 kg/ha
  herbicidal activity against APESV: good (A good herbicidal activity is given at values of 70 to 90)

## CCC(CCC(=O)OC)NC(=O)C(OC)C(=O)Nc1cc(Cl)cc(Cl)c1 (centres unmarked) [I.105]
[2]; application rate 0.500 kg/ha
  herbicidal activity against ALOMY: good (A good herbicidal activity is given at values of 70 to 90)

## COC(=O)[C@H]1C=C[C@@H](NC(=O)C(OC)C(=O)Nc2cc(Cl)cc(Cl)c2)C1 (some centres unmarked) [I.113]
[1]; application rate 0.500 kg/ha
  herbicidal activity against APESV: very good (a very good herbicidal activity is given at values of 90 to 100)
[2]; application rate 0.500 kg/ha
  herbicidal activity against ALOMY: very good (a very good herbicidal activity is given at values of 90 to 100)

## COC(=O)C(C)(C)C(C)NC(=O)C(OC)C(=O)Nc1cc(Cl)cc(Cl)c1 (centres unmarked) [I.115]
[1]; application rate 0.500 kg/ha
  herbicidal activity against APESV: good (A good herbicidal activity is given at values of 70 to 90)

## COC(C(=O)NCCCC(=O)OCC(F)F)C(=O)Nc1cc(Cl)cc(Cl)c1 (centres unmarked) [I.117]
[3]; application rate 0.500 kg/ha
  herbicidal activity against AMARE: good (A good herbicidal activity is given at values of 70 to 90)

## COC(C(=O)NCCCC(=O)OCC(F)(F)F)C(=O)Nc1cc(Cl)cc(Cl)c1 (centres unmarked) [I.118]
[1]; application rate 0.500 kg/ha
  herbicidal activity against APESV: good (A good herbicidal activity is given at values of 70 to 90)
[3]; application rate 0.500 kg/ha
  herbicidal activity against AMARE: good (A good herbicidal activity is given at values of 70 to 90)

## CCOC(=O)CCCNC(=O)C(OC)C(=O)Nc1cc(Cl)cc(Cl)c1 (centres unmarked) [I.119]
[1]; application rate 0.500 kg/ha
  herbicidal activity against APESV: good (A good herbicidal activity is given at values of 70 to 90)
[3]; application rate 0.500 kg/ha
  herbicidal activity against AMARE: good (A good herbicidal activity is given at values of 70 to 90)

## COCCOC(=O)CCCNC(=O)C(OC)C(=O)Nc1cc(Cl)cc(Cl)c1 (centres unmarked) [I.120]
[3]; application rate 0.500 kg/ha
  herbicidal activity against AMARE: good (A good herbicidal activity is given at values of 70 to 90)

## COC(C(=O)NCCCC(=O)OCCCl)C(=O)Nc1cc(Cl)cc(Cl)c1 (centres unmarked) [I.121]
[1]; application rate 0.500 kg/ha
  herbicidal activity against APESV: good (A good herbicidal activity is given at values of 70 to 90)
[3]; application rate 0.500 kg/ha
  herbicidal activity against AMARE: good (A good herbicidal activity is given at values of 70 to 90)

## COC(=O)CCC(C)NC(=O)C(OC)C(=O)Nc1cc(F)cc(F)c1 (centres unmarked) [I.122]
[1]; application rate 0.500 kg/ha
  herbicidal activity against APESV: very good (a very good herbicidal activity is given at values of 90 to 100)
[3]; application rate 0.500 kg/ha
  herbicidal activity against AMARE: very good (a very good herbicidal activity is given at values of 90 to 100)

## COC(=O)[C@@H]1C=C[C@H](N(C)C(=O)C(OC)C(=O)Nc2cc(Cl)cc(Cl)c2)C1 (stereo partly drawn) [I.155, methyl (1S,4R)-4-[[3-(3,5-dichloroanilino)-2-methoxy-3-oxo-propanoyl]-methyl-amino]cyclopent-2-ene-1-carboxylate]
[1]; application rate 0.250 kg/ha
  herbicidal activity against APESV: good (A good herbicidal activity is given at values of 70 to 90)
[2]; application rate 0.250 kg/ha
  herbicidal activity against ALOMY: good (A good herbicidal activity is given at values of 70 to 90)
[3]; application rate 0.250 kg/ha
  herbicidal activity against AMARE: good (A good herbicidal activity is given at values of 70 to 90)

## COC(C(=O)Nc1cc(Cl)c(C)c(Cl)c1)C(=O)N[C@H]1C=C[C@@H](C(=O)OC(C)C)C1 (some centres unmarked) [I.171]
[2]; application rate 0.125 kg/ha
  herbicidal activity against ALOMY: good (A good herbicidal activity is given at values of 70 to 90)
[4]; application rate 0.125 kg/ha
  herbicidal activity against ABUTH: good (A good herbicidal activity is given at values of 70 to 90)

## COC(=O)[C@@H]1C=C[C@H](NC(=O)C(OC)C(=O)Nc2cc(OC)c(C)c(OC)c2)C1 (some centres unmarked) [I.197]
[2]; application rate 0.250 kg/ha
  herbicidal activity against ALOMY: good (A good herbicidal activity is given at values of 70 to 90)
[4]; application rate 0.250 kg/ha
  herbicidal activity against ABUTH: good (A good herbicidal activity is given at values of 70 to 90)
